# PubChem BioAssay AID1224828 | NIAID, 2016
# Screen: 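Regulators linking TLR4 signalling to p65 nuclear translocation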 (primary screen)
# System: mouse RAW264.7 G9 macrophage reporter cells (GFP-p65, Tnf promoter-mCherry)
# Knock-down reagent: siRNA pool against mouse genes, 100 nM
# Timing: 2 days siRNA transfection, then 40 min LPS before fixation
# Conditions: LPS (Salmonella minnesota R595) at 10 ng/ml
# Read-out: 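Microscopy ratio of nuclear to perinuclear-ring GFP-p65 signal, scaled to the plate median; gene score is the average of two replicate robust z-scores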
# Reading the numbers: p65 translocation robust z-score: higher = more nuclear NF-kappaB p65 after LPS than the plate median; nuclear/cytoplasmic p65 ratio: higher = more nuclear NF-kappaB p65
# Hit rule: 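Active if robust z is above 3.3 (negative regulators) or below -1.56, the Tlr4 control median (positive regulators); activity score 50 or more; control wells not called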
# Calls: active = hit (p65 shift raised or lowered); inactive = no clear change
# The whole screen tested about 17,000 reagents; this is a part drawn at random. Of all reagents, 762 (4.5%) got an active call. 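Active calls include both raised and lowered p65 entry, mostly lowered; wells with fewer than 50 cells lack a z-score.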 Raw values vary from plate to plate and are shown uncorrected. A number with no mark means an inactive call. Reagent sequences are not shown.
The opening 5 entries, ahead of the listing:
Target gene,p65 translocation robust z-score,"nuclear/cytoplasmic p65 ratio, rep 1","nuclear/cytoplasmic p65 ratio, rep 2",low cell count flag
Magi1,-0.24,1.64,1.52,enough cells to score
Calm2,1.34,1.73,1.9,enough cells to score
Czib,0.23,1.51,1.54,enough cells to score
Crygs,0.64,1.59,1.44,enough cells to score
Rab43,,1.39,1.09,fewer than 50 cells per well; well left out of scoring

Main list, from the start:
Target gene,p65 translocation robust z-score,"nuclear/cytoplasmic p65 ratio, rep 1","nuclear/cytoplasmic p65 ratio, rep 2",low cell count flag
Magi1,-0.24,1.64,1.52,enough cells to score
Calm2,1.34,1.73,1.9,enough cells to score
Czib,0.23,1.51,1.54,enough cells to score
Crygs,0.64,1.59,1.44,enough cells to score
Rab43,,1.39,1.09,fewer than 50 cells per well; well left out of scoring
Zscan12,,1.27,1.1,fewer than 50 cells per well; well left out of scoring
Utp20,-0.84,1.43,1.54,enough cells to score
Ntsr2,1.98,1.73,1.94,enough cells to score
Ppp1r7,-0.35,1.4,1.41,enough cells to score
Sult3a1,,0,1.14,fewer than 50 cells per well; well left out of scoring
Phf7,,1.53,1.11,fewer than 50 cells per well; well left out of scoring
Or7g35,,1.25,1.46,fewer than 50 cells per well; well left out of scoring
Ifna7,0.51,1.49,1.45,enough cells to score
Ccnl1,0.02,1.23,1.38,enough cells to score
Pdlim1,0.24,1.5,1.42,enough cells to score
Zfand5,-0.96,1.28,1.14,enough cells to score
Inmt,2,1.6,1.43,enough cells to score
6030445D17Rik,-1.2,1.21,1.3,enough cells to score
Pced1a,-0.03,1.36,1.54,enough cells to score
Atp11b,0.07,1.66,1.59,enough cells to score
Rab1b,,1.47,1.41,fewer than 50 cells per well; well left out of scoring
Clec5a,-0.7,1.48,1.68,enough cells to score
Pdrg1,0.38,1.4,1.54,enough cells to score
Hk3,,2.4,1.5,fewer than 50 cells per well; well left out of scoring
Npffr2,-0.74,1.42,1.45,enough cells to score
S100a7a,-0.6,1.44,1.62,enough cells to score
Or4c1,-1.64 (active),1.33,1.29,enough cells to score
Hs6st1,-2.12 (active),1.5,1.26,enough cells to score
Dpep2,-0.05,1.47,1.38,enough cells to score
Spaca7b,,1.48,1.47,fewer than 50 cells per well; well left out of scoring
Sccpdh,-1.19,1.28,1.35,enough cells to score
Dad1,-0.43,1.45,1.27,enough cells to score
Ehhadh,-0.26,1.48,1.29,enough cells to score
Wnt7a,0.44,1.65,1.49,enough cells to score
Foxb2,2.72,2.08,1.76,enough cells to score
Tro,1.42,1.55,1.41,enough cells to score
Serpine1,-1.01,1.4,1.42,enough cells to score
Aff2,-0.34,1.44,1.27,enough cells to score
Pfpl,-0.65,1.29,1.22,enough cells to score
Flot1,-1.46,1.31,1.33,enough cells to score
Tlr11,-0.16,1.38,1.17,enough cells to score
Sh2d1b1,,1.06,1.3,fewer than 50 cells per well; well left out of scoring
Egfbp2,1.1,1.68,1.6,enough cells to score
Srd5a3,-0.13,1.28,1.22,enough cells to score
B2m,-1.07,1.48,1.43,enough cells to score
Atp1b4,-0.26,1.41,1.63,enough cells to score
Galk1,-1.29,1.52,1.19,enough cells to score
Apobec2,0.35,1.7,1.65,enough cells to score
Pax6,,1.21,1.07,fewer than 50 cells per well; well left out of scoring
Plac9,-1.88 (active),1.51,1.2,enough cells to score
Dip2b,0.14,1.58,1.76,enough cells to score
Rnf4,0.38,1.5,1.64,enough cells to score
Zfp85,,1.18,1.11,fewer than 50 cells per well; well left out of scoring
Or8s2,,1.37,1.49,fewer than 50 cells per well; well left out of scoring
Spon1,2.4,1.78,1.47,enough cells to score
Trerf1,0.01,1.52,1.5,enough cells to score
Best1,-0.81,1.42,1.36,enough cells to score
Or4k48,-1.5,1.35,1.25,enough cells to score
BC107364,1.35,1.85,1.66,enough cells to score
Catsper1,0.87,1.53,1.54,enough cells to score
Suox,0.11,1.5,1.64,enough cells to score
Icosl,3.27,2.06,1.83,enough cells to score
Pdia3,-0.55,1.33,1.34,enough cells to score
Clock,-0.08,1.45,1.37,enough cells to score
Rsl1d1,0.57,1.66,1.54,enough cells to score
Ppp1r37,0.28,1.75,1.74,enough cells to score
Blmh,0.04,1.66,1.58,enough cells to score
Zfp512,-0.62,1.36,1.15,enough cells to score
Gm5108,0.66,1.81,1.65,enough cells to score
Mast1,-1.24,1.4,1.22,enough cells to score
Smarca1,-0.15,1.44,1.63,enough cells to score
Scn3b,-0.81,1.28,1.15,enough cells to score
Trarg1,-0.54,1.31,1.5,enough cells to score
Or8j3c,0.01,1.7,1.54,enough cells to score
Fuom,-0.99,1.25,1.31,enough cells to score
